Measured values: the supplement of paper PMC10470496
Structures can show the parent of a compound that is named as a salt. Some of the results follow. Many values rest on one well or one pass, so single values are uncertain.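 Three clinical Candida auris isolates (clades III, IV and I) from the CDC resistance isolate bank were grown in RPMI-1640 at 35°C. Growth was background-corrected OD600 relative to same-plate vehicle-only wells. Hits required over 50% inhibition in at least two strains and a plate-corrected B-score above 0.1.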

Legend:
Test in all cases: growth relative to vehicle control (OD600 ratio) (fraction); higher = less inhibition
Conditions in all cases: 24 h
[1] = system: C. auris AR-384
[2] = system: C. auris AR-386
[3] = system: C. auris AR-387

Row | SMILES | growth ([1]; 1 µM) | growth ([1]; 10 µM) | growth ([2]; 1 µM) | growth ([2]; 10 µM) | growth ([3]; 1 µM) | growth ([3]; 10 µM)
1 | COc1cc2c(c(OC)c1OC)-c1ccc(OC)c(=O)cc1[C@@H](NC(C)=O)CC2 [Colchicine] | 1.22 | 1.26 | 1.16 | 1.05 | 1.07 | 1.34
2 | Cc1cc(C(C#N)c2ccc(Cl)cc2)c(Cl)cc1NC(=O)c1cc(I)cc(I)c1O (centres undefined) [Closantel Sodium] | 1.04 | 0.62 | 1.03 | 0.43 | 0.94 | 0.56
3 | Cn1c(CCCC(=O)O)nc2cc(N(CCCl)CCCl)ccc21 [Bendamustine HCl] | 0.67 | 1.14 | 1.16 | 0.98 | 0.84 | 1.07
4 | CNC(C)Cc1ccccc1OC (centres undefined) [Methoxyphenamine Hydrochloride] | 0.99 | 0.89 | 1.15 | 1 | 1.14 | 1.3
5 | [O-][n+]1ccccc1[S-].[O-][n+]1ccccc1[S-].[Zn+2] [Zinc Pyrithione] | 0.88 | 0.69 | 0.76 | 0.48 | 0.57 | 0.65
6 | CN1[C@@H]2CC[C@H]1C[C@@H](OC(=O)C(CO)c1ccccc1)C2 (some centres undefined) [Atropine sulfate monohydrate] | 0.89 | 0.8 | 0.74 | 0.75 | 0.67 | 0.63
7 | C[C@]12CCC(=O)C(O)=C1CC[C@@H]1[C@@H]2CC[C@]2(C)C(=O)CC[C@@H]12 [Formestane] | 0.69 | 0.8 | 0.76 | 0.82 | 0.74 | 0.9
8 | C=C1CC[C@@]2(O)[C@H]3Cc4ccc(O)c5c4[C@@]2(CCN3CC2CC2)[C@H]1O5 [Nalmefene HCl] | 1.24 | 1.3 | 1.17 | 1.35 | 1.07 | 1
9 | COc1ccc(CN2CCNCC2)c(OC)c1OC [Trimetazidine dihydrochloride] | 0.8 | 0.96 | 0.89 | 0.86 | 0.88 | 0.79
10 | C=CC[C@]1(O)CC[C@H]2[C@@H]3CCC4=CC(=O)CCC4=C3C=C[C@@]21C [Altrenogest] | 0.87 | 1.02 | 0.88 | 0.87 | 1.24 | 1.22
11 | O=P1(N(CCCl)CCCl)NCCCO1 (centres undefined) [Cyclophosphamide Monohydrate] | 0.84 | 0.72 | 0.95 | 0.83 | 0.95 | 1.15
12 | CCC(COC(=O)c1cc(OC)c(OC)c(OC)c1)(c1ccccc1)N(C)C (centres undefined) [Trimebutine] | 0.94 | 1.06 | 0.68 | 1.11 | 0.79 | 0.92
13 | NCC1(CC(=O)O)CCCCC1 [Gabapentin] | 1.36 | 1.05 | 1.12 | 1.29 | 1.17 | 1.15
14 | CCOC(=O)Nc1ccc(NCc2ccc(F)cc2)cc1N [Retigabine] | 1.26 | 1.02 | 0.82 | 1.13 | 0.79 | 0.83
15 | O=C(O)CCCc1ccc(N(CCCl)CCCl)cc1 [Chloroambucil] | 0.79 | 0.77 | 0.68 | 0.7 | 0.6 | 0.79
16 | CC(=O)O[C@H]1C[C@@H]2CC[C@@H]3[C@H](CC[C@@]4(C)[C@H]3C[C@H]([N+]3(C)CCCCC3)[C@@H]4OC(C)=O)[C@@]2(C)C[C@@H]1[N+]1(C)CCCCC1 [Pancuronium dibromide] | 0.77 | 0.9 | 0.73 | 1.1 | 1.05 | 0.76
17 | N[C@@H](Cc1ccc(N(CCCl)CCCl)cc1)C(=O)O [Melphalan] | 0.75 | 0.86 | 0.78 | 0.59 | 0.61 | 0.7
18 | NC(=O)CN1CCCC1=O [Piracetam] | 0.99 | 0.97 | 0.79 | 1.17 | 1.01 | 0.97
19 | O=[N+]([O-])O[C@@H]1CO[C@H]2[C@@H]1OC[C@@H]2O [Isosorbide Mononitrate] | 1.6 | 1.4 | 1.15 | 1.03 | 1.04 | 1.04
20 | N[C@@H]1C[C@H]1c1ccccc1 [Tranylcypromine (2-PCPA) HCl] | 0.95 | 0.88 | 1.3 | 0.74 | 0.86 | 0.85
21 | O=P1(NCCCl)OCCCN1CCCl (centres undefined) [Ifosfamide] | 1.06 | 1.05 | 1.2 | 1.21 | 1.12 | 1.19
22 | Cc1cc(C(C#N)c2ccc(Cl)cc2)c(Cl)cc1NC(=O)c1cc(I)cc(I)c1O (centres undefined) [Closantel] | 1.06 | 1.11 | 0.95 | 0.92 | 0.94 | 1.05
23 | CC(=O)OC1CN2CCC1CC2 (centres undefined) [Aceclidine HCl] | 1.31 | 1.27 | 1.19 | 1.09 | 1.11 | 0.97
24 | CN(C)C(=O)Oc1ccc[n+](C)c1 [Pyridostigmine Bromide] | 1.07 | 0.97 | 1.08 | 0.97 | 0.93 | 0.87

2 entries drawn at random from those above, as already listed:
Row | SMILES | growth ([1]; 1 µM) | growth ([1]; 10 µM) | growth ([2]; 1 µM) | growth ([2]; 10 µM) | growth ([3]; 1 µM) | growth ([3]; 10 µM)
13 | NCC1(CC(=O)O)CCCCC1 [Gabapentin] | 1.36 | 1.05 | 1.12 | 1.29 | 1.17 | 1.15
11 | O=P1(N(CCCl)CCCl)NCCCO1 (centres undefined) [Cyclophosphamide Monohydrate] | 0.84 | 0.72 | 0.95 | 0.83 | 0.95 | 1.15
